Measurements from US20180298377A1, “GENOMIC COM[…] PLATFORM” (THE RESEARCH FOUNDATION FOR THE STATE UNIVERSITY OF NEW YORK, priority 2015, published 2018).
At least one compound was matched to its structure with a doubt left.

Experiments:
Assay in all cases: PPiSeq pooled growth fitness assay (split mDHFR PCA, double barcode sequencing)
Assay type in all cases: cell-based, yeast
Hom3:Fpr1 PPI = target: T1, Hom3:Fpr1 PPI (Saccharomyces cerevisiae, UniProt P20081); conditions: 50 μM FK506, MTX(+) 0.5 μg/ml, vs benign environment; PPI still detected; p<10^−59
T1 construct: nine haploid strains expressing PCA hybrid proteins of interest tagged with the C-terminal portion of mDHFR; mDHFR fragment F[3]
T1 sequence (P20081 1-114): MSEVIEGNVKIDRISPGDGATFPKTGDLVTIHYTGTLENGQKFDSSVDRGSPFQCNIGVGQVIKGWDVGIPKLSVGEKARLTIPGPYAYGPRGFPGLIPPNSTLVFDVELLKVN

Tpo1:Pdr5 PPI = conditions: 50 μM FK506, MTX(+) 0.5 μg/ml, vs benign environment; p<10^−16
Tpo1:Snq2 PPI = conditions: 50 μM FK506, MTX(+) 0.5 μg/ml, vs benign environment; p<0.01

C=CC[C@@H]1/C=C(\C)C[C@H](C)C[C@H](OC)[C@H]2O[C@@](O)(C(=O)C(=O)N3CCCC[C@H]3C(=O)O[C@H](/C(C)=C/[C@@H]3CC[C@@H](O)[C@H](OC)C3)[C@H](C)[C@@H](O)CC1=O)[C@H](C)C[C@@H]2OC [FK506]
fitness of the Hom3:Fpr1 PPI diminished in FK506 (Hom3:Fpr1 PPI): ~10 fold
fitness of the Tpo1:Pdr5 PPI in FK506 (Tpo1:Pdr5 PPI): higher fitnesses
fitness of the Tpo1:Snq2 PPI in FK506 (Tpo1:Snq2 PPI): higher fitnesses
